Data: PubChem BioAssay AID588463 (National Center for Advancing Translational Sciences (NCATS), 2011)
The campaign covered roughly 1,200 compounds. About 15 (1%) were called active. Another 7% or so got no clear call; they are omitted. Calls come from the whole dose curve; as a rule, active = well fitted activation curve with a large enough effect; inconclusive = small, poorly fitted or top-dose-only effect; inactive = flat fitted curve, though single readings scatter. The list shows a part of the results.

These compounds were tested against Beta-2 adrenergic receptor (Homo sapiens) (UniProt P07550) (assay: qHTS assay of beta-arrestin-biased ligands of beta2-adrenergic receptor: Hit Validation). Details: cell-based beta-arrestin recruitment to beta2AR; Potency: activation; series mostly up to 46.1 µM; activation: at the top concentration.
Method in brief: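 Luminescent tTA-driven luciferase reporter in Tango cells, read after 18 h at 37 °C with compound and 15 min with substrate mix (0.15 mM ATP, 0.44 mM D-luciferin, final). Concentration-response fits categorized by curve class.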
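Note: plate controls were DMSO for no effect and maximal isoproterenol or metaproterenol response for full effect.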

Row | SMILES | activation
1 | CCSc1nnc(NC(=O)c2ccccn2)s1 | inactive: -5.08%
2 | Cc1cc(C)n(-c2nc(NCCCO)c3c4c(sc3n2)CCCC4)n1 | inactive: -1.57%
3 | C/C(=N/NC(=S)Nc1cccc(C)c1)c1cccc([N+](=O)[O-])c1 | inactive: -2%
4 | CC(=O)c1cc2c(cc1NC(=O)c1ccc(C)cc1)OCO2 | inactive: 3.05%
5 | Cc1nc(COC(=O)c2ccc(S(=O)(=O)N3CCCC3)cc2)cs1 | inactive: -0.855%
6 | NS(=O)(=O)c1ccc(CCNC(=O)CSc2ccc(Cl)cc2)cc1 | inactive: -1.77%
7 | COc1ccc(C(CNC(=O)c2ccc(C)c(S(=O)(=O)Nc3ccccc3OC)c2)N2CCCC2)cc1 (stereo unspecified) | inactive: -0.677%
8 | CC(/C=C/c1ccc2c(c1)OCO2)=N/NC(=O)c1cccnc1 | inactive: -3.83%
9 | C/C(=N\NC(=S)NCc1ccccc1)c1ccc(Br)cc1 | inactive: -1.17%
10 | Cc1cccc(NC(=S)Nc2cccc(C)n2)n1 | inactive: -3.32%
11 | N=c1n(Cc2ccccc2)c2ccccc2n1Cc1ccccc1 | inactive: -2.83%
12 | CNC(=S)N/N=C/c1cc(C)n(-c2ccc(Cl)c(Cl)c2)c1C | inactive: -2.09%
13 | C/C(=N\NC(=S)NCc1ccccc1)c1ccc2ccccc2c1OC(F)F | inactive: -2.23%
14 | C[C@@H](NC(=O)c1coc(=O)c(Br)c1)c1ccccc1 | inactive: -3.18%
15 | FC(F)(F)c1cc(Nc2ccccc2)nc(-c2ccccn2)n1 | inactive: -0.114%
16 | Cc1nn(C)cc1/C=N/NC(=S)Nc1ccccc1 | inactive: -2.3%
17 | Cc1[nH]c2ccccc2c1/C=N/Nc1cccc(C(=O)O)c1 | inactive: -0.789%
18 | CN1CCN(C(=O)c2ccccc2[N+](=O)[O-])CC1 | inactive: -4.99%
19 | CCn1c(SCC(=O)N/N=C/C=C/c2ccco2)nc2ccccc21 | inactive: -2.47%
20 | CCOC(=O)N1C/C(=C\c2ccccc2)C(=O)/C(=C/c2ccccc2)C1 | inactive: -3.82%
21 | Cc1ccc(SCc2cc(=O)[nH]c(/N=C(\N)Nc3ccc(C)c(C)c3)n2)cc1 | inactive: -2.5%
22 | COC(=O)c1cccc(/C=N/NC(N)=S)c1O | inactive: -3.45%
23 | Cc1ccc(NC(=S)N2CCn3cccc3C2c2cccnc2)cc1 (stereo unspecified) | inactive: 4.9%

Row | SMILES | activation
24 | CCNC(=S)NNC(=O)c1cc(-c2cc(C)ccc2C)nc2ccccc12 | inactive: 0.0925%
25 | CN(Cc1ccccc1)CC(O)COc1ccc(CNCc2nccn2C)cc1 (stereo unspecified) | inactive: -3.53%
26 | O=C1c2ccccc2[C@@H]2C[C@@H](O)[C@H](Nc3cccc4ccccc34)CCN12 | inactive: -2.47%
27 | COc1ccc(/C(C)=N/NC(=S)NCCc2ccccc2)c(O)c1 | inactive: -2.86%
28 | CCN(C(=O)Cn1c(Cl)nc2c1c(=O)n(C)c(=O)n2C)C1CCCCC1 | inactive: -1.79%
29 | CNC(=S)N/N=C(\C)c1ccc(Cl)c(Cl)c1 | inactive: -0.919%
30 | Cn1c(=O)c2c(-c3ccccc3)n(-n3cnnc3)cc2n(C)c1=O | inactive: -0.697%
31 | NC(=S)NN=C(Cc1ccccc1)Cc1ccccc1 | inactive: -1.78%
32 | O=C(COC(=O)c1ccc(CO)cc1)NCc1cccs1 | inactive: 2.78%
33 | CCCCN(CCCC)CCCNC(=O)Cn1cc2c(n1)-c1c(oc(C(=O)N3CCCC3)c1C)CC2 | inactive: 11%
34 | CCCCn1c(-c2sccc2C)n[nH]c1=S | inactive: -5.68%
35 | COc1ccc(C(NC(=O)/C=C/c2ccco2)c2ccc(OC)c(OC)c2)cc1OC | inactive: -2.72%
36 | CCNC(=S)/N=C(\N)Nc1nc(C)c2cc(C)ccc2n1 | inactive: -1.6%
37 | CSCC[C@H](NC(=O)c1ccc(OCC2CCCO2)cc1)c1nc2ccccc2[nH]1 (stereo partly specified) | inactive: 3.23%
38 | Cc1cc(C2CCCCC2)n(O)c(=O)c1 | inactive: -2.4%
39 | Cc1sc2nc(CSCC(=O)Nc3c(F)cccc3F)[nH]c(=O)c2c1C | inactive: -4.73%
40 | CC1=NN(C(N)=S)C(=O)C1N=Nc1cccc(C)c1 (stereo unspecified) | inactive: -2.95%
41 | O=C(NC1CCN(Cc2ccccc2)CC1)c1c(F)cccc1F | inactive: -3.57%
42 | COC(=O)c1ccc(-c2ccc(F)cc2)nc1C | inactive: -3.87%
43 | CCCCCC(=O)Nc1cccc(C2=NOC3(C2)C[C@@H](C(N)=O)N(C(=O)CC(c2ccccc2)c2ccccc2)C3)c1 (stereo partly specified) | inactive: -2.41%
44 | CCN(CC)c1ccc(N2C(=O)/C(=C/c3cccnc3)SC2=S)cc1 | inactive: -2.32%
45 | Cc1ccc(S(=O)(=O)N(CC(=O)N/N=C/c2ccco2)c2cc(Cl)cc(Cl)c2)cc1 | inactive: 0.42%
46 | C=C(C)C(=O)Oc1ccc(N2C(=O)[C@@H]3C4C=CC(C4)[C@@H]3C2=O)cc1 | inactive: -0.877%

Row | SMILES | activation
47 | COc1ccccc1N=NC1C(=O)N(C(N)=S)N=C1C (stereo unspecified) | inactive: -4.57%
48 | CCNC(=S)NNc1nncc2ccccc12 | inactive: -2.03%
49 | COc1ccc(C)cc1N(C(=O)c1cccc(F)c1)c1nc2ccccc2s1 | inactive: 6.6%
50 | O=[N+]([O-])c1ccc(/C=C2\CCC(C3=CCCC3)=C2N2CCOCC2)cc1 | inactive: -1.92%
51 | Cc1nn(-c2ccccc2)c(C)c1/C=N/NC(=O)CSc1nnc(SCc2ccccc2Cl)s1 | inactive: -0.869%
52 | Cc1cccc(N=C2NC(=O)/C(=C/c3cccs3)S2)c1 | inactive: -0.803%
53 | O=[N+]([O-])c1cc(Br)cc(C=Nc2ccc3c(c2)OCO3)c1O | inactive: -0.425%
54 | O=C(Oc1ccc(Cl)c2cccnc12)c1ccco1 | inactive: 0.103%
55 | O=C(N/N=C/c1c[nH]c2ccc(Br)cc12)C1CC1 | inactive: -2.83%
56 | COc1ccc(-c2nnc(SCC(=O)Nc3cc(C)on3)o2)cc1 | inactive: -3.61%
57 | Cc1ccc(/C=C2/C(=O)N(c3ccccc3)C(=S)N2C)o1 | inactive: -3.96%
58 | CCc1cc2c(=O)nc3n(c2s1)Cc1ccccc1/C3=C(/O)c1ccc(F)cc1 | inactive: 1.92%
59 | COc1ccc(CN2CSC(=S)N(Cc3ccccc3)C2)cc1 | inactive: -4.29%
60 | COc1ccc(C(=O)C2CCCN(C/C=C/c3ccccc3OC)C2)c(OC)c1 (stereo unspecified) | inactive: 5.65%
61 | CN(C(=O)CSc1nnc(-c2cccs2)n1C1CC1)C1CCS(=O)(=O)C1 (stereo unspecified) | inactive: -2.77%
62 | CCn1c(SCC(=O)c2ccc(Cl)cc2)nnc1C(C)C | inactive: -0.908%
63 | S=C(Nc1ccccc1)Nc1nc2ccccc2n1CCOc1ccc(Cl)cc1 | inactive: -4.14%
64 | CCCC(=O)NC(=S)Nc1ccc(Cl)cn1 | inactive: -1.8%
65 | N#CC[C@H](Cc1ccccc1)N1CC[C@@H](O)CCC1=O | inactive: -0.52%
66 | CC1=CC2=NC(=O)/C(=C/c3coc4ccccc4c3=O)C(=N)N2O1 | inactive: -1.65%
67 | COc1ccc(OCCCC(=O)Nc2nc(-c3ccccn3)cs2)cc1 | inactive: 9.17%
68 | O=C(O)c1[nH]c2ccccc2c1C(c1cc(Br)ccc1O)c1c(C(=O)O)[nH]c2ccccc12 | inactive: -1.89%
69 | O=C(Cn1cc(-c2nnnn2-c2ccc(Cl)cc2)c(=O)c2ccccc21)c1ccccc1 | inactive: -1.66%

Exported comma-delimited: part of the list above.
Row,SMILES,activation
47,COc1ccccc1N=NC1C(=O)N(C(N)=S)N=C1C (stereo unspecified),inactive: -4.57%
48,CCNC(=S)NNc1nncc2ccccc12,inactive: -2.03%
49,COc1ccc(C)cc1N(C(=O)c1cccc(F)c1)c1nc2ccccc2s1,inactive: 6.6%
50,O=[N+]([O-])c1ccc(/C=C2\CCC(C3=CCCC3)=C2N2CCOCC2)cc1,inactive: -1.92%
51,Cc1nn(-c2ccccc2)c(C)c1/C=N/NC(=O)CSc1nnc(SCc2ccccc2Cl)s1,inactive: -0.869%
52,Cc1cccc(N=C2NC(=O)/C(=C/c3cccs3)S2)c1,inactive: -0.803%
53,O=[N+]([O-])c1cc(Br)cc(C=Nc2ccc3c(c2)OCO3)c1O,inactive: -0.425%
54,O=C(Oc1ccc(Cl)c2cccnc12)c1ccco1,inactive: 0.103%
55,O=C(N/N=C/c1c[nH]c2ccc(Br)cc12)C1CC1,inactive: -2.83%
56,COc1ccc(-c2nnc(SCC(=O)Nc3cc(C)on3)o2)cc1,inactive: -3.61%
57,Cc1ccc(/C=C2/C(=O)N(c3ccccc3)C(=S)N2C)o1,inactive: -3.96%
58,CCc1cc2c(=O)nc3n(c2s1)Cc1ccccc1/C3=C(/O)c1ccc(F)cc1,inactive: 1.92%
59,COc1ccc(CN2CSC(=S)N(Cc3ccccc3)C2)cc1,inactive: -4.29%

Continued:

Row | SMILES | activation
70 | CC1CN(C(=S)NC(=O)c2ccc([N+](=O)[O-])cc2)CC(C)O1 (stereo unspecified) | inactive: -1.79%
71 | Cc1ccc(C(=O)N/C(=C\c2ccco2)C(=O)NCCc2c[nH]c3ccccc23)cc1 | inactive: -2.46%
72 | CC(C)(O)C(=O)NN(C(=O)c1ccccc1)c1ccc2ccccc2c1 | inactive: -2.62%
73 | CC(NC(=O)NNC(N)=S)(C(F)(F)F)C(F)(F)F | inactive: -2.46%
74 | Oc1ccccc1/C=N/Nc1nc2ccccc2o1 | inactive: 5.21%
75 | Cc1ccc(S(=O)(=O)CNC(=S)c2ccc3ccccc3c2)cc1 | inactive: -2.6%
76 | COc1cc(/C=C2\CC/C(=C\c3ccc(OCCO)c(OC)c3)C2=O)ccc1OCCO | inactive: 0.204%
77 | S=C(Nc1ccccc1)Nc1nccs1 | inactive: -1.57%
78 | Cc1nn2c(nc1=O)NNC2(C)C(C)(C)C (stereo unspecified) | inactive: 4.3%
79 | Cc1nn2c(COc3ccc(NC(=O)c4ccccc4Cl)cc3)nnc2c2ccccc12 | inactive: 0.533%
80 | CCC1=Nc2cc(C(=O)NCc3ccco3)ccc2Sc2ccccc21 | inactive: -0.414%
81 | Cc1cccc(NC(=S)N=Nc2c(O)n(CN3CCOCC3)c3ccccc23)c1C | inactive: -2.46%
82 | O=C(c1ccc(CN2CCOCC2)cc1)N1CCN(c2cccc(Cl)c2)CC1 | inactive: -3.76%
83 | O=C(COC(=O)c1cc(=O)c2ccccc2o1)Nc1ccc2ccccc2c1 | inactive: -3.15%
84 | CN(C)NC(=S)Nc1ccc(Cl)cc1 | inactive: -4.31%
85 | Nc1ncnc(Oc2cccc3cccnc23)c1[N+](=O)[O-] | inactive: -2.28%
86 | O=C(/C=C/c1ccccc1)Oc1cccc2cccnc12 | inactive: -4.36%
87 | C=CCn1c(O)c(N=NC(=S)Nc2ccccc2C)c2cc(S(=O)(=O)N3CCOCC3)ccc21 | inactive: -2.97%
88 | O=C(CSC(=S)N1CCCCC1)c1c(F)cccc1F | inactive: -1.39%
89 | Cn1c(CNC(=O)c2ccccc2F)nnc1SCC(=O)c1ccccc1 | inactive: 0.675%
90 | O=c1c(Cl)c(NCCCO)cnn1-c1nc2ccccc2[nH]1 | inactive: -3.17%
91 | COc1ccc(N2C(=O)CS/C2=N\C(=S)Nc2ccccc2)cc1 | inactive: -5.46%
92 | C=CCNC(=S)N/N=C/c1ccc(C)s1 | inactive: -1.8%

Row | SMILES | activation
93 | CC1(C)C/C(=N\NC(=S)Nc2ccccc2F)c2cc(O)ccc2O1 | inactive: -2.37%
94 | COc1ccc(CN2CCCC(C(=O)c3ccc(SC)cc3)C2)cc1Cn1cccn1 (stereo unspecified) | inactive: 0.256%
95 | CN1CCc2cccc3c2[C@H]1Cc1ccc(O)c(O)c1-3 | inactive: -3.37%
96 | COc1ccc(C2=C(C=C(C#N)C#N)C(c3ccccc3C)c3ccccc3O2)cc1OC (stereo unspecified) | inactive: -1.2%
97 | O=C(CN1CCN(Cc2ccc3c(c2)OCO3)CC1)Nc1ccc(F)cc1 | inactive: -2.52%
98 | O=C(C[C@H]1C[C@H](C(=O)N2CCCCC2)[C@@]2(CCc3ccccc3)c3[nH]c4cc(-c5ccco5)ccc4c3CCN2C1=O)NCCC1=CCCCC1 | inactive: 0.303%
99 | COc1cc(/C=N/NC(=S)Nc2cccnc2)cc(OC)c1OC | inactive: -4.48%
100 | O=C(c1ccccc1)c1ccc2nc(-c3ccco3)c(-c3ccco3)nc2c1 | inactive: -1.16%
101 | CCN(CC)CCC(=O)N1c2ccccc2Sc2ccc(NC(=O)OC)cc21 | inactive: -1.25%
102 | C=CCNC(=S)NN=C1CCC(c2ccccc2)CC1 (stereo unspecified) | inactive: -4%
103 | COc1ccc(N2CCN(CCOc3ccc4c(C)cc(=O)oc4c3)CC2)cc1 | inactive: -3.41%
104 | CC(C)[C@H](NC(=O)c1ccccc1Cl)C(=O)Nc1nc(-c2ccccn2)cs1 | inactive: -5.38%
105 | O=C(NC(=S)Nc1ccc(Cl)cc1)c1ccccc1 | inactive: -2.83%
106 | COc1ccc(/C=N/Nc2nncc3ccccc23)c(OC)c1 | inactive: -3.29%
107 | Oc1ccc(NCc2ccccc2OCc2ccccc2)cc1 | inactive: -3.26%
108 | Cn1c(O)c(/C=N/NC(=O)c2cc3ccccc3cc2O)c2ccccc21 | inactive: -3.51%
109 | C/C(=N\NC(=S)NC(C)C)c1ccccc1OC(F)F | inactive: -3.96%
110 | CCOC(=O)c1cnc(-n2nc(C)cc2C)nc1NC | inactive: -2.59%
111 | Cc1ccc(S(=O)(=O)NCCC(C)C)cc1[N+](=O)[O-] | inactive: -2.78%
